The subject of the data set is hyperglycemic and hypoinsulinemic Type 1 rat models (Streptozotocin). As to the kind of experiment: Fasting plasma insulin in STZ Type 1 rat model. The data set is classed as in vivo.

For two molecules, Fasting plasma insulin results are on record in patent US8592370B2, “Combination of insulin with triazine derivatives” (Poxel S.A.S., priority 2008, dated 2013).

As for “control + insulin: subcutaneously implanted insulin pellets releasing 3 U per 24 h (Limplant LINSHIN CANADA); insulin alone group”, the Fasting plasma insulin (insulin pellets 3 U per 24 h alone, day 8) is 653 pmol/L; the Fasting plasma insulin (insulin pellets 3 U per 24 h alone, day 15) was found to be 597 pmol/L; the Fasting plasma insulin (insulin pellets 3 U per 24 h alone, day 22) was found to be 496 pmol/L; the Fasting plasma insulin (insulin pellets 3 U per 24 h alone, day 36) came to 459 pmol/L.
Consider `CC1NC(=N)N=C(N(C)C)N1` (stereo not drawn) [EMD, 5,6-dihydro-4-dimethylamino-2-imino-6-methyl-1,3,5-triazine], for which the Fasting plasma insulin stood at 666 pmol/L (EMD 75 mg/kg b.i.d. oral in combination with insulin pellets, day 8); 602 pmol/L (EMD 75 mg/kg b.i.d. oral in combination with insulin pellets, day 15); 592 pmol/L (EMD 75 mg/kg b.i.d. oral in combination with insulin pellets, day 22); 475 pmol/L (EMD 75 mg/kg b.i.d. oral in combination with insulin pellets, day 36); 586 pmol/L (EMD 150 mg/kg b.i.d. oral in combination with insulin pellets, day 8); 635 pmol/L (EMD 150 mg/kg b.i.d. oral in combination with insulin pellets, day 15). The Fasting plasma insulin by setting is: (EMD 150 mg/kg b.i.d. oral in combination with insulin pellets, day 22) 558 pmol/L; (EMD 150 mg/kg b.i.d. oral in combination with insulin pellets, day 36) 496 pmol/L.
